Source: PubChem BioAssay AID624297 (National Center for Advancing Translational Sciences (NCATS), 2012)
Out of some 340,000 compounds screened, about 6,200 (1.8%) were called active. Inconclusive results, whose numbers are uncertain, are shown with a selection of clear calls. Calls come from the whole dose curve; as a rule, active = well fitted activation curve with a large enough effect; inconclusive = small, poorly fitted or top-dose-only effect; inactive = no such curve, though single readings can be large or run the other way. Potencies of inconclusive entries are doubtful fits and often do not repeat.
Potency is the fitted concentration of half-maximal effect.

Assay: A quantitative high throughput screen for small molecules that induce DNA re-replication in SW480 colon adenocarcinoma cells. For re-replication activation: % of control where 0% means no effect. Note: nearly all actives have a fitted effect of over 55% in size.
Settings: Hoechst DNA content imaging, 48 h; re-replication activation: at 46.1 µM (top of the series) unless noted
How it was run: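 Image-based read-out: total Hoechst fluorescence of nuclei (405 nm excitation, 500-530 nm emission), with hits raising the fraction of high-intensity nuclei. SW480 colon cells incubated 48 hr with compounds at 37 C.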
For `C/C(=N\NC(=O)c1cc(-c2cccnc2)nc2ccccc12)c1ccc(O)cc1O`, the Potency was inconclusive: 2.91 µM [activator, partial curve, poor fit]. With `CCOC(=O)c1c(-c2ccccc2)csc1NC(=O)CSc1nnnn1C` the Potency was “inactive”. In the case of `COc1ccccc1Cn1c(=S)[nH]c2cc(C(=O)N3CCN(c4ccccc4OC)CC3)ccc2c1=O`, the Potency is reported as “inactive”. For `COC(=O)Oc1ccc(/C=N/NC(=O)CSCc2ccc(Cl)cc2)cc1OC`, the Potency was “inactive”. With `CCc1cc2ccc(C)cc2nc1SCC(=O)Nc1cc(C)on1` the Potency was “inactive”. For `CCOc1ccc(Br)cc1CNCc1cccnc1`, the Potency was inconclusive: 14.6 µM [activator, partial curve, poor fit]. With `C/C(=N\Nc1cc(N2CCCCC2)nc(C)n1)c1ccc(Br)cc1` the Potency was inconclusive: 4.61 µM [activator, full curve, poor fit]. With `c1csc(-c2nc(N3CCCCC3)no2)c1` the Potency was “inactive”. For `OCCCCNCc1ccc(OCc2ccc(Cl)cc2)cc1`, the Potency was inconclusive: 25.9 µM [activator, single point]. In the case of `CCOC(=O)Cc1csc(NC(=S)NC(=O)c2ccccc2)n1`, the Potency is reported as “inactive”. In the case of `Cc1cccc(N2C(=O)CC(SC(=Nc3ccccc3)Nc3ccccc3)C2=O)c1` (configuration not stated), the Potency is reported as “inactive”. With `Clc1ccc(-c2nnc(-c3ccc4ccccc4c3)o2)cc1` the Potency was “inactive”. In the case of `Cc1ccc(-c2nc(N/N=C/c3cccc([N+](=O)[O-])c3)c3ccccc3n2)cc1`, the Potency is reported as “inactive”. With `C/C(=N\NC(=O)COc1ccc(C)cc1Br)c1cc([N+](=O)[O-])cs1` the Potency was active: 9.2 µM. In the case of `CC(NC(=O)COc1ccccc1Cl)c1ccccc1` (configuration not stated), the re-replication activation is reported as inconclusive: -4.68% [activator]. With `COc1ccc(/C=N/NC(=O)c2cc(OC)c(OC)c(OC)c2)cc1CN1CCc2cc(OC)c(OC)cc2C1C` (configuration not stated) the Potency was inconclusive: 20.6 µM [activator, single point]. With `Cc1c(C(=O)N2CCOCC2)[nH]c2c1C(=O)CC(c1ccc(Cl)cc1)C2` (configuration not stated) the Potency was inconclusive: 0.231 µM [activator, full curve, poor fit]. For `Cc1cccc(-c2cc3c(nn2)-c2ccccc2C3=O)c1`, the Potency was inconclusive: 32.6 µM [activator, partial curve, poor fit]. With `COCCCn1c(-c2ccc(OC)cc2)nc2c1c(=O)[nH]c(=O)n2Cc1ccccc1` the Potency was inconclusive: 3.26 µM [activator, single point]. With `O=C(/C=C\c1ccco1)Oc1cccc2cccnc12` the Potency was “inactive”. In the case of `CCOC(=O)[C@H]1O[C@@H]1C(=O)N[C@@H](CC(C)C)C(=O)NCCC(C)C`, the Potency is reported as inconclusive: 12.6 µM [activator, partial curve, poor fit]. For `CCCCN(C)C(=O)Cc1c(OC)ccc2cc(Br)ccc12`, the Potency was inconclusive: 32.6 µM [activator, partial curve, poor fit]. For `COc1ccc(-n2c(C)c([N+](=O)[O-])c3ccc(O)c(CN(C)C)c32)cc1`, the Potency was inconclusive: 20.6 µM [activator, single point]. With `CCCn1c(SCC(=O)N(C)C2CCS(=O)(=O)C2)nc2sc3c(c2c1=O)CCC3` (configuration not stated) the Potency was active: 18.4 µM. In the case of `CN(C)S(=O)(=O)c1cccc(NC(=O)CSc2ncnc3ccccc23)c1`, the Potency is reported as inconclusive: 18.4 µM [activator, partial curve, poor fit]. For `c1coc(CNc2c3c(nc4ncnn24)CCCC3)c1`, the Potency was “inactive”. With `Cc1cc(C)c(NS(=O)(=O)c2ccc(NC(=O)c3cccs3)cc2)c(C)c1` the Potency was “inactive”. With `COc1cccc(NC(=O)C2CCN(C(=O)[C@@H]3Cc4ccccc4CN3)CC2)c1` the Potency was “inactive”. With `COc1ccc(CCNC(=O)c2ccc(CS(=O)(=O)c3ccc(C)cc3)o2)cc1OC` the Potency was “inactive”. With `O=C(O)c1ccc(CNS(=O)(=O)c2ccc(Oc3ccccc3Cl)cc2)cc1` the Potency was active: 0.164 µM. With `COc1cccc(-c2sc3ccc(OC)cc3c2C#CC2(O)CCCCC2)c1` the Potency was inconclusive: 9.2 µM [activator, partial curve, poor fit]. With `Cc1cccc(NS(=O)(=O)c2ccc(C(=O)N3CCCCCC3)cc2)c1C` the Potency was “inactive”. With `CCN1C(=O)[C@H]2[C@@H](c3ccc(-c4ccc(C(C)=O)cc4)cc3)N3CCCC[C@@]3(C(=O)OC)[C@H]2C1=O` the Potency was inconclusive: 3.26 µM [activator, partial curve, poor fit]. For `COc1ccc(N(CC(=O)N/N=C/c2ccccc2OC)S(=O)(=O)c2ccccc2)cc1`, the Potency was inconclusive: 35.5 µM [activator, single point]. In the case of `COC(=O)CN(c1cc(Cl)ccc1OC)S(=O)(=O)c1ccc(C)cc1`, the Potency is reported as inconclusive: 13 µM [activator, partial curve]. With `CCCCCCCCCCCCCCCC[N+](C)(C)Cc1ccccc1` the Potency was inconclusive: 13.3 µM [activator, single point]. In the case of `COC(=O)[C@@]1(Cc2ccccc2)[C@H]2C(=O)N(C)C(=O)[C@H]2[C@H]2CN=C(SCc3ccc(Cl)cc3)N21`, the Potency is reported as inconclusive: 1.16 µM [activator, single point]. In the case of `Cn1c(SCC(=O)NNC(=O)c2ccccc2O)nnc1-c1ccccc1`, the Potency is reported as inconclusive: 18.4 µM [activator, single point]. With `COc1ccc(C(=O)C(CN2CCCC2)c2ccccc2)cc1` (configuration not stated) the Potency was inconclusive: 3.55 µM [activator, single point]. With `CCOCCn1c(=O)c2c(nc3n2CC(C)CN3Cc2ccccc2)n(C)c1=O` (configuration not stated) the Potency was inconclusive: 20.6 µM [activator, single point]. In the case of `COc1ccc(-c2csc(N(CCCN3CCOCC3)C(=O)c3ccco3)n2)cc1`, the Potency is reported as inconclusive: 2.06 µM [activator, partial curve, poor fit]. In the case of `O=C(CCl)N1CCN(C(=O)C2COc3ccccc3O2)CC1` (configuration not stated), the Potency is reported as inconclusive: 16.4 µM [activator, single point]. For `COc1ccc(-n2c(C)ccc2-c2ccccc2)cn1`, the Potency was inconclusive: 25.9 µM [activator, single point]. In the case of `Cc1cccc(-n2c(N)c(-c3nc4ccccc4n3C)c3nc4ccccc4nc32)c1`, the Potency is reported as active: 5.8 µM. For `Cc1ccc(NC(=O)c2cc(-c3ccc4c(c3)OCO4)on2)cc1`, the Potency was “inactive”. With `CCOC(=O)c1c(C)c(C(=O)N2CCc3ccccc3C2)c(C)n1CC` the Potency was inconclusive: 20.6 µM [activator, single point]. In the case of `O=C(NCC(c1cccs1)N1CCOCC1)c1cn(-c2ccccc2)nc1-c1ccc(Cl)cc1` (configuration not stated), the Potency is reported as inconclusive: 29.1 µM [activator, single point]. With `Cc1ccc(S(=O)(=O)Nc2cccc(Cl)c2)cc1NC(=O)c1cccnc1` the Potency was inconclusive: 0.231 µM [activator, single point]. With `O=S(=O)(c1c(F)cccc1F)N1CCN(Cc2c(O)ccc3ccccc23)CC1` the Potency was “inactive”. With `Cc1ccccc1OCc1nnc(SCC(=O)O)n1Cc1ccccc1` the Potency was inconclusive: 3.66 µM [activator, full curve, poor fit]. For `CCOc1ccc(NC(=O)CN2C(=O)NC(CCSC)C2=O)cc1` (configuration not stated), the Potency was inconclusive: 2.82 µM [activator, full curve, poor fit]. In the case of `COc1ccc(N2CCN(C(=O)c3ccc(Cn4nc(C)c([N+](=O)[O-])c4C)o3)CC2)cc1`, the Potency is reported as inconclusive: 14.6 µM [activator, single point]. With `Cc1ccc(S(=O)(=O)Nc2ccc3c4c(cccc24)CC3)c(C)c1` the Potency was inconclusive: 29.1 µM [activator, single point]. For `CN(c1ccccc1)S(=O)(=O)c1cccc(NC(=O)CSc2nncs2)c1`, the Potency was inconclusive: 32.6 µM [activator, partial curve, poor fit]. In the case of `COc1cc(OC)cc(C(=O)N[C@H](C(=O)N2CCc3ccccc32)C(C)C)c1`, the Potency is reported as inconclusive: 29.1 µM [activator, single point]. In the case of `COc1cc(NC(=S)NC(=O)c2c(OC)cccc2OC)ccc1NC(=O)c1cccs1`, the Potency is reported as inconclusive: 18.4 µM [activator, partial curve, poor fit]. For `Cc1cc(C)c2nc(SCC(=O)Nc3cc(C)on3)c(C#N)cc2c1`, the Potency was inconclusive: 32.6 µM [activator, single point]. In the case of `COc1ccc(C(C(=O)NCC2CCCO2)N(Cc2ccccc2)C(=O)CNC(=O)c2ccco2)cc1OC` (configuration not stated), the Potency is reported as “inactive”. With `Cc1ccc(N)cc1-n1c(C)ccc1C` the Potency was inconclusive: 23.1 µM [activator, single point]. With `C=C(C)C(=O)OC1(C(F)(F)F)Oc2cc(C)ccc2NC1=O` (configuration not stated) the Potency was inconclusive: 16.4 µM [activator, single point]. For `CCC(=O)c1c[nH]c(C(=O)N2CCOCC2)c1`, the Potency was “inactive”. In the case of `COc1ccc(OC)c(N=c2ssnc2Cl)c1`, the Potency is reported as inconclusive: 29.1 µM [activator, partial curve, poor fit]. With `C[C@H]1CC[C@H]2C(=O)N3[C@H](c4ccccc4Br)[C@@H](C)CC[C@H]3C(=O)N2[C@@H]1c1ccccc1Br` the Potency was inconclusive: 29.1 µM [activator, single point]. For `COc1ccc(NC(=O)c2c(C)oc3c2CCCC3)cc1`, the Potency was inconclusive: 13 µM [activator, partial curve, poor fit]. For `O=C(O)c1ccccc1-c1ccccc1C(=O)Nc1cccc(-c2nc3ccccc3o2)c1`, the Potency was inconclusive: 0.0291 µM [activator, full curve, poor fit]. In the case of `COc1ccc(-c2nc3scc(-c4ccccc4)n3n2)cc1`, the Potency is reported as inconclusive: 29.1 µM [activator, single point]. In the case of `O=C(NCc1nnnn1-c1ccc(F)c(F)c1)c1ccc2ccccc2c1`, the Potency is reported as inconclusive: 7.31 µM [activator, partial curve, poor fit].
